# Source: PubChem BioAssay AID1487 (National Center for Advancing Translational Sciences (NCATS), 2009)
# This is one part of the list. Shown are side measurements of this screen, not its main read-out; they come without a call. The list favours compounds with an active or inconclusive main result. Words in brackets tell the shape of the fitted curve; partial curves, single points and poor fits give uncertain potencies.
# Assay: qHTS Assay for Modulators of Lamin A Splicing
# Details: HeLa LMNA splicing GFP/RFP minigene ratio, 48 h
# Method in brief: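 Read-out is the ratio of GFP to DsRed2 object intensity, acquired by 488 nm laser-scanning cytometry on HeLa lamin A-EGFP minigene reporter cells. Compound incubation 48 hrs at 37 °C in Opti-MEM with 2% FBS; DMSO 0.5% final.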
# [1] = measured here: GFP splicing reporter channel
# [2] = measured here: RFP viability control channel
SMILES,AC50 [1],AC50 [2]
Cc1ccc2[nH]c(=O)c(CN(Cc3ccco3)S(=O)(=O)c3c(C)ccc4nsnc34)cc2c1,"22.4 µM [rising, single point]","20 µM [rising, partial curve]"
CC(C)CC(=O)NC(=S)Nc1ccc(S(=O)(=O)NC(C)(C)C)cc1,"35.5 µM [rising, single point]","35.5 µM [rising, single point]"
CC(OC(=O)c1cc2sccc2n1C)C(=O)NCc1ccco1 (stereo not drawn),"17.8 µM [rising, single point]","31.6 µM [rising, single point]"
CCOC(=O)c1c(NC(=S)Nc2ccccc2)sc2c1CCCCC2,"11.2 µM [rising, single point]","35.5 µM [rising, single point]"
CCOC(=O)C1=C(C)Nc2nnnn2C1c1ccccc1Cl (stereo not drawn),,"1.26 µM [rising, partial curve]"
COc1ccc(S(=O)(=O)n2nc(OC(=O)c3ccccc3Br)cc2N)cc1,,"35.5 µM [falling, single point]"
COc1ccc2nc(SCC(=O)Nc3ccccc3)[nH]c2c1,"12.6 µM [rising, single point]","15.8 µM [rising, single point]"
O=C(Nc1cc(Sc2nc3ccccc3s2)cc([N+](=O)[O-])c1)c1ccccc1,,"15.8 µM [rising, single point]"
CN(C(=O)c1ccc2c(c1)OCO2)C1(C(=O)NC2CCCCC2)CCCCC1,"15.8 µM [rising, single point]","14.1 µM [rising, single point]"
CC(C)CCn1cnc2c(cnn2-c2ccc(F)cc2)c1=O,,"14.1 µM [rising, single point]"
Cc1ccc(SCCNC(=S)Nc2ccc(C)c(C)c2)cc1,"22.4 µM [falling, single point]","12.6 µM [falling, partial curve]"
CC(=O)N1c2ccccc2N2C(c3c(C)c(C)cc(C)c3C)=NON12,"12.6 µM [falling, partial curve, poor fit]","15.8 µM [falling, partial curve, poor fit]"
CCn1c(CN2CCCCC2)nc2cc(NC(=O)c3ccc([N+](=O)[O-])cc3)ccc21,"2.51 µM [falling, partial curve]",
COC(=O)c1c(NC(=O)/C=C/C(=O)O)sc(C)c1-c1ccc(C)c(C)c1,,"35.5 µM [rising, single point]"
C/C(=N\OC(=O)c1c(-c2ccccc2Cl)noc1C)c1ccncc1,"5.01 µM [falling, single point]","0.00316 µM [falling, full curve, poor fit]"
CN(C)C(=S)N=Nc1[nH]c2ccccc2c1O,,"35.5 µM [rising, single point]"
CC(C)CN1CCN(Cc2cnc(-c3ccc(Cl)cc3)nc2)CC1CCO (stereo not drawn),"0.282 µM [falling, full curve]","0.708 µM [falling, full curve]"
CCn1c(SCC(=O)Nc2nccs2)nnc1-c1ccc(S(=O)(=O)N2CCCCCC2)cc1,,"22.4 µM [rising, single point]"
Cc1c(C(=O)NCCc2ccc(S(N)(=O)=O)cc2)sc2nc3n(c(=O)c12)CCCC3,"6.31 µM [falling, partial curve]","0.00282 µM [falling, full curve]"
COc1ccc2c(c1)CCc1cc(C(=O)N3CCN(c4ccc(N5CCOCC5)nn4)CC3)sc1-2,,"7.08 µM [rising, partial curve]"
O=C(CSc1ncn[nH]1)Nc1nnc(-c2ccccc2)s1,"10 µM [rising, partial curve]","12.6 µM [rising, single point]"
Cc1ccc(-n2cc(CN3CCC(O)(c4ccccn4)CC3)c(-c3ccc(F)cc3)n2)cc1,"10 µM [falling, partial curve]","11.2 µM [falling, partial curve, poor fit]"
CN(C)c1ccnc(Oc2ccc(C(C)(C)C)cc2)c1C#N,,"31.6 µM [rising, single point]"
CCOC(=O)c1ccccc1NC(=O)N1CCOc2ccc(Cl)cc21,"0.00631 µM [falling, full curve]","0.00316 µM [falling, full curve]"
Cc1ccc(C(=O)Nc2ccc(C)c(S(=O)(=O)N(C)C)c2)s1,"35.5 µM [rising, single point]","35.5 µM [rising, single point]"
O=C(NCCN1CCOCC1)c1sc2ccccc2c1Cl,"0.891 µM [falling, full curve, poor fit]","0.501 µM [falling, full curve]"

SMILES,AC50 [1],AC50 [2]
Cc1ccc2ccc3cc(C(=O)N4CCN(c5ccccc5)CC4)nc3c2[nH]1,"0.01 µM [rising, full curve, poor fit]",
O=c1sc2ccccc2c(N2CCCC2)c1[N+](=O)[O-],,"5.62 µM [falling, single point]"
COc1ccc(-c2ccc3cc(C(=O)O)ccc3c2)cc1C12CC3CC(CC(C3)C1)C2,"25.1 µM [falling, single point]","3.16 µM [falling, partial curve]"
C=CCN1C(=O)CSc2ccc(C(=O)NCCC3=CCCCC3)cc21,"11.2 µM [rising, single point]","14.1 µM [rising, single point]"
Cc1ccc(N2C(=O)NC(NC(=O)C(C)(C)C)(C(F)(F)F)C2=O)cc1C (stereo not drawn),"22.4 µM [falling, single point]","11.2 µM [falling, single point]"
COc1ccc(OC)c(S(=O)(=O)Nc2cc(C(=O)O)ccc2N2CC3CC(C2)c2cccc(=O)n2C3)c1 (stereo not drawn),"0.0251 µM [falling, full curve, poor fit]","0.0224 µM [falling, full curve, poor fit]"
O=C(NNc1c2ccccc2nc2ccccc12)c1ccc(O)cc1,,"12.6 µM [rising, partial curve, poor fit]"
COc1ccc(NS(=O)(=O)c2cc(NC(=O)C3CC3)ccc2N2CCCCC2)cc1,"0.00708 µM [falling, full curve, poor fit]",
O=C(Nc1ccc2c(c1)C(=O)N(CC1CCCO1)C2=O)c1ccc(Cl)c(Cl)c1 (stereo not drawn),,"6.31 µM [rising, partial curve]"
CCN(CC)CCNCC(O)(c1ccc(Cl)cc1)c1ccc(Cl)cc1,"11.2 µM [falling, partial curve]","8.91 µM [falling, partial curve, poor fit]"
Cc1cc(C)n(CC(O)CN(c2ccccc2)S(=O)(=O)c2ccc3ccccc3c2)n1 (stereo not drawn),,"35.5 µM [rising, single point]"
Cc1ccc(Cc2nc3ccccc3nc2SCC(=O)N2CCCCC2C)cc1 (stereo not drawn),,"31.6 µM [rising, single point]"
Cc1ccc(-c2nnn(CC(=O)N(C)C3CCCCC3)n2)o1,"0.0316 µM [falling, full curve, poor fit]","0.0316 µM [falling, full curve, poor fit]"
O=C(c1ccc2c3c(cccc13)C(=O)N(O)C2=O)N1CCCCC1,,"7.08 µM [rising, partial curve]"
CS(=O)(=O)N(Cc1ccc(Cl)cc1)c1ccc(C(=O)Nc2cccnc2)cc1,"11.2 µM [rising, single point]","31.6 µM [rising, single point]"
COc1cccc(N2CCN(S(=O)(=O)c3ccc4c(c3)CCCN4C(C)=O)CC2)c1,"35.5 µM [falling, single point]",
COCCNc1nc2c(c(=O)n(C)c(=O)n2C)n1Cc1cccc(C)c1,,"20 µM [rising, partial curve, poor fit]"
CC(C)N1CCC(NC(=O)Nc2ccccc2)CC1,"0.141 µM [rising, full curve, poor fit]",
COc1ccc(CCN2CCC(CNC(=O)c3cnn(-c4ccccc4)c3C3CCN(C(=O)OC(C)(C)C)CC3)CC2)cc1,,"22.4 µM [rising, partial curve, poor fit]"
CCOc1ccccc1NS(=O)(=O)c1ccc2c(c1)n(C)c(=O)c(=O)n2C,"1.58 µM [falling, partial curve, poor fit]","0.224 µM [falling, partial curve]"
CCCOc1ccccc1NC(=O)/C=C/C(N)=O,"35.5 µM [falling, single point]","35.5 µM [falling, single point]"
COc1ccc(C)cc1NC(=O)Cn1cc(S(=O)(=O)Cc2ccccc2Cl)c2ccccc21,"15.8 µM [falling, single point]","35.5 µM [falling, single point]"
O=C(Nc1ccncc1)c1cc2ccccc2o1,,"35.5 µM [rising, single point]"
CCN(CC(=O)NCc1ccc(Cl)cc1)C(=O)/C=C/c1cccs1,,"2.51 µM [falling, partial curve]"
Cc1cc(C(C)(C)C)cc(C)c1Cn1c2[n+](c3ccc(C(F)(F)F)cc31)CCCCC2,,"31.6 µM [rising, single point]"
CC1CCN(C(=O)c2ccc(S(=O)(=O)Cc3ccccc3F)c([N+](=O)[O-])c2)CC1,,"15.8 µM [rising, partial curve, poor fit]"
